# Experimental data from PMC7848006.
# Protein sequences, listed by entry. Tags and fused reporters are not part of them. Lines headed by an entry give the natural chain unless they say otherwise; changes in a name come on top.
# UniProt Q94BN0: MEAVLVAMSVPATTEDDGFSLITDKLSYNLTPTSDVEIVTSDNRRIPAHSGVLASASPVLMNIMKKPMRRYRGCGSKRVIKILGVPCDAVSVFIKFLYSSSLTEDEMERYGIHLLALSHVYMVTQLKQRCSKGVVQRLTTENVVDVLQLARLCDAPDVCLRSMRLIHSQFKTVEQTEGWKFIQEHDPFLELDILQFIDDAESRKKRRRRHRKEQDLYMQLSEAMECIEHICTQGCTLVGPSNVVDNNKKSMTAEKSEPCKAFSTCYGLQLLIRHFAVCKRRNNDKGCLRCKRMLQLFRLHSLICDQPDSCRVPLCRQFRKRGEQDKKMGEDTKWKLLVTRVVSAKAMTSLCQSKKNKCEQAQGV
# UniProt P48348: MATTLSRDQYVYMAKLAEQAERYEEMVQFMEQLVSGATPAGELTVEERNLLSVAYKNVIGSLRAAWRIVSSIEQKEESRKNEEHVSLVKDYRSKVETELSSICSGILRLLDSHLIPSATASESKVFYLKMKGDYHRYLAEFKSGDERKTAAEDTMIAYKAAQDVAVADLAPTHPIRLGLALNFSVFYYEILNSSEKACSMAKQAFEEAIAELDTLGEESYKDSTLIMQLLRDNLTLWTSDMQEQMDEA
# UniProt Q96299: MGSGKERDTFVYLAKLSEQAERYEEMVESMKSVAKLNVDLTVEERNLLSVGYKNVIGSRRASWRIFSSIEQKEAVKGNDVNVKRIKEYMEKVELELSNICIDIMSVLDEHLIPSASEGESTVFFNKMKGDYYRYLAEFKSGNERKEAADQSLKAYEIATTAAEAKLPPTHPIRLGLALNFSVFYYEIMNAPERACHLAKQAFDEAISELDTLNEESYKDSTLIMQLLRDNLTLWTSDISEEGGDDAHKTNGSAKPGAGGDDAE
# UniProt P48347: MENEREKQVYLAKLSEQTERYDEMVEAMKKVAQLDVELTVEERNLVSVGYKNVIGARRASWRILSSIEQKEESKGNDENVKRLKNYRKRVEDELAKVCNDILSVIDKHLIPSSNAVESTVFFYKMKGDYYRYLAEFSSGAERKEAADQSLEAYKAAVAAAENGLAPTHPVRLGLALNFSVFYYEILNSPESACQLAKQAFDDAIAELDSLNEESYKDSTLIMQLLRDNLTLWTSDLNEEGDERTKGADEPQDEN
# Results are given in words; binding and its absence hold for the method and conditions named. Binding can be weak; no strength is given.
# Biological target: AtBT2 in the pGBT9 bait vector (Arabidopsis) (UniProt Q94BN0)
# Experiment: two-hybrid; baits in pGBT9, preys in pGAD424, cotransformed into yeast Y2H Gold; growth on SD/-Trp-Leu-His-Ade with X-α-gal
row,binding,Substance
1,binds,AtGRF8 in the pGAD424 prey vector (from UniProt P48348)
2,binds,AtGRF9 in the pGAD424 prey vector (from UniProt Q96299)
3,binds,AtGRF10 in the pGAD424 prey vector (from UniProt P48347)
